Test results as given in patent US10525115B2 (Immatics Biotechnologies GmbH, priority 2014, dated 2020).

Legend:
primary AML samples = assay: HLA class I ligandome analysis (W6/32 immunoaffinity purification, LC-MS/MS) of primary AML samples; design: species or system human; settings: HLA class I ligandome, AML patients (n=15); count for the HLA ligand (LiTAP) or, on protein lines, for the source protein (LiTAA)
[1] = tested on: cancer tissues in comparison to non-cancerous tissues and organs; assay: Presentation profile / over-presentation by label-free LC-MS (XPRESIDENT), tumor versus normal tissues, other proliferative diseases; design: species or system human; settings: other proliferative diseases / organs (other than AML) that over- or exclusively present the peptide; Table 5

Substance | Number of positive AMLs (primary AML samples) | Proliferative disease and location thereof [1]
134 (IIFDRPLLY; listed as Homo sapiens) [compound 134] | 3 | stomach, adenocarcinoma, parathyroid gland, adenoma
138 (SVVDLINHY; listed as Homo sapiens) [compound 138] | 3 | brain, glioblastoma, bone, non-ossifying fibroma
139 (EIIEKDTKY; listed as Homo sapiens) [compound 139] | 2 | stomach, metastatic, lung, large cell carcinoma
140 (ENEEKLKEL; listed as Homo sapiens) [compound 140] | 1 | stomach, metastatic, lung, large cell carcinoma
141 (ILGGPGTVQGV; listed as Homo sapiens) [compound 141] | 3 | liver, hepatocellular carcinoma, cancer, vulva, squamous cell carcinoma
142 (ESAALIHHY; listed as Homo sapiens) [compound 142] | 2 | liver, hepatocellular carcinoma, fibromatosis
143 (YQRETPQV; listed as Homo sapiens) [compound 143] | 1 | liver, hepatocellular carcinoma, fibromatosis
144 (ARIEIGLHY; listed as Homo sapiens) [compound 144] | 1 | liver, focal nodular hyperplasia
145 (IPYPRPIHL; listed as Homo sapiens) [compound 145] | 2 | liver, focal nodular hyperplasia
146 (DVSGKTALNQ; listed as Homo sapiens) [compound 146] | 1 | kidney, clear cell renal cell carcinoma, stomach, gastrointestinal stromal tumor (GIST)
147 (TEFRSLVI; listed as Homo sapiens) [compound 147] | 1 | kidney, clear cell renal cell carcinoma, stomach, gastrointestinal stromal tumor (GIST)
148 (TLKSGDGITF; listed as Homo sapiens) [compound 148] | 1 | kidney, clear cell renal cell carcinoma, stomach, gastrointestinal stromal tumor (GIST)
152 (YELDLREPAL; listed as Homo sapiens) [compound 152] | 2 | lung, non-small cell lung carcinoma, lung, adenocarcinoma
153 (GAYGKVFLV; listed as Homo sapiens) [compound 153] | 1 | liver, hepatocellular carcinoma, kidney, angiomyolipoma
154 (DHDLLKNF; listed as Homo sapiens) [compound 154] | 2 | kidney, clear cell renal cell carcinoma, kidney, polycystic kidney disease
155 (EELQLIRQA; listed as Homo sapiens) [compound 155] | 1 | kidney, clear cell renal cell carcinoma, kidney, polycystic kidney disease
156 (AAELLKHPF; listed as Homo sapiens) [compound 156] | 2 | prostate, adenocarcinoma
157 (GRVKLSDFGF; listed as Homo sapiens) [compound 157] | 1 | prostate, adenocarcinoma
158 (KSNSIIVSPR; listed as Homo sapiens) [compound 158] | 3 | brain, glioblastoma, brain, meningioma
159 (ETLERLQEL; listed as Homo sapiens) [compound 159] | 1 | liver, hepatocellular carcinoma, cancer, parotid; gland, pleomorphic adenoma
160 (KDDELSRQ; listed as Homo sapiens) [compound 160] | 1 | liver, hepatocellular carcinoma, cancer, parotid; gland, pleomorphic adenoma
161 (LQQTNSEKI; listed as Homo sapiens) [compound 161] | 1 | kidney, clear cell renal cell carcinoma, parotid; gland, pleomorphic adenoma

Substance | Number of positive AMLs (primary AML samples) | Proliferative disease and location thereof [1]
162 (GEFGKPYFI; listed as Homo sapiens) [compound 162] | 1 | colon or rectum, testis, seminoma
163 (KDVKVVIL; listed as Homo sapiens) [compound 163] | 1 | colon or rectum, testis, seminoma
164 (RPVPPPPSL; listed as Homo sapiens) [compound 164] | 1 | colon or rectum, testis, seminoma
165 (KEDIPGRHSY; listed as Homo sapiens) [compound 165] | 1 | stomach, adenocarcinoma, spleen, chronic; myeloid leukemia
166 (KETKAVTNF; listed as Homo sapiens) [compound 166] | 1 | stomach, adenocarcinoma, spleen, chronic; myeloid leukemia
167 (YEILIHDL; listed as Homo sapiens) [compound 167] | 3 | stomach, adenocarcinoma, spleen, chronic; myeloid leukemia
168 (FPRFVNVTV; listed as Homo sapiens) [compound 168] | 1 | spleen, chronic myeloid leukemia
169 (QVAGWGSQR; listed as Homo sapiens) [compound 169] | 1 | spleen, chronic myeloid leukemia
170 (WIDGVLNNPGPG; listed as Homo sapiens) [compound 170] | 1 | spleen, chronic myeloid leukemia
171 (SFMTHPEF; listed as Homo sapiens) [compound 171] | 1 | stomach, adenocarcinoma, myometrium, leiomyoma
172 (HYTIVFNTF; listed as Homo sapiens) [compound 172] | 1 | colon or rectum, myometrium, leiomyoma
173 (GTNDGPALKK; listed as Homo sapiens) [compound 173] | 1 | colon or rectum, liver, hepatocellular carcinoma
174 (IEDPVRPEV; listed as Homo sapiens) [compound 174] | 1 | colon or rectum, liver, hepatocellular carcinoma
175 (NTASGGMTR; listed as Homo sapiens) [compound 175] | 1 | brain, glioblastoma, skin, squamous cell carcinoma
176 (EVIETEKTLY; listed as Homo sapiens) [compound 176] | 1 | colon or rectum, breast, mucinous carcinoma
177 (MKILNHPNI; listed as Homo sapiens) [compound 177] | 1 | colon or rectum, lung, squamous cell carcinoma
178 (HEIDRYTAI; listed as Homo sapiens) [compound 178] | 1 | kidney, clear cell renal cell carcinoma, non- Hodgkin's lymphoma
179 (VFTLKPLEF; listed as Homo sapiens) [compound 179] | 1 | kidney, clear cell renal cell carcinoma, non- Hodgkin's lymphoma
180 (YWVPRNAL; listed as Homo sapiens) [compound 180] | 1 | kidney, clear cell renal cell carcinoma, non- Hodgkin's lymphoma
181 (EVSPNLVRY; listed as Homo sapiens) [compound 181] | 2 | stomach, metastatic, pancreas, adenocarcinoma
182 (LSEIAGMTLP; listed as Homo sapiens) [compound 182] | 1 | stomach, metastatic, pancreas, adenocarcinoma
183 (FLSFMNTEL; listed as Homo sapiens) [compound 183] | 1 | lung, non-small cell lung carcinoma, stomach, adenocarcinoma
